PubChem BioAssay AID504791, Drosophila RNAi Screening Center – 2011
In all, the deposit lists about 23,000 reagents; below is an unselected part of those with a known target gene and a result. Of all reagents, 199 (0.86%) were called active. 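Plate-scaled ratios behind the calls are not deposited; printed light signals are raw; many rows marked increased or decreased are still called inactive.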 The numbers tell different reagents against one gene apart. The record does not give: the direction of the score.

Aim: 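Factors in Argonaute-based small RNA production and activity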 (primary screen)
Cell system: Drosophila S2-derived reporter cells
Reagent: long dsRNA against Drosophila genes, about 150-250 ng dsRNA per well (siRNA assay); about 80-120 ng (miRNA assay)
Duration: about 5 days (siRNA assay); about 4 days (miRNA assay)
Conditions: copper sulfate induction of reporters: 25 µM (siRNA assay); 200 mM stated (miRNA assay), 1-2 days before reading
Measured: 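Dual luciferase assay: Renilla to firefly signal ratio in each well, scaled to the mean ratio of its plate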
Units: stable assay Renilla, run 1 in luminescence; stable assay firefly, run 1 in luminescence
Rule for the call: 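a well was a first-pass pick when its plate-scaled ratio rose above 1.5 (siRNA assay) or 1.6 (miRNA assay), or dropped below 0.6; a gene counted only if two separate dsRNAs agreed on retest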

How did the screen score HipHop?
stable assay Renilla, run 1: 7831; stable assay firefly, run 1: 2.73e5; Call: inactive

Which result is listed for CG31636?
stable assay Renilla, run 1: 7007; stable assay firefly, run 1: 3.79e5; Call: inactive

Which result is listed for cathD?
stable assay Renilla, run 1: 6434; stable assay firefly, run 1: 3.94e5; Call: inactive

How did the screen score CG7878?
stable assay Renilla, run 1: 8086; stable assay firefly, run 1: 3.40e5; Call: inactive

With CG12479, how do the results read?
stable assay Renilla, run 1: 5179; stable assay firefly, run 1: 4.92e5; Call: inactive

How did the screen score CG16978?
stable assay Renilla, run 1: 6747; stable assay firefly, run 1: 3.42e5; Call: inactive

What is on record for CG13022?
stable assay Renilla, run 1: 7702; stable assay firefly, run 1: 3.35e5; Call: inactive

With CG42369, what was measured?
stable assay Renilla, run 1: 8002; stable assay firefly, run 1: 5.57e5; Call: inactive

How did the screen score Ugt302K1?
stable assay Renilla, run 1: 5726; stable assay firefly, run 1: 3.69e5; Call: inactive

For Crz, what was measured?
stable assay Renilla, run 1: 6802; stable assay firefly, run 1: 4.88e5; Call: inactive

With Elys, what was measured?
stable assay Renilla, run 1: 8983; stable assay firefly, run 1: 3.73e5; Call: inactive

How did the screen score mRpL27?
stable assay Renilla, run 1: 4536; stable assay firefly, run 1: 4.36e5; Call: inactive

Which result is listed for loh #1?
stable assay Renilla, run 1: 5620; stable assay firefly, run 1: 4.59e5; Call: inactive

With loh #2, what was measured?
stable assay Renilla, run 1: 6463; stable assay firefly, run 1: 3.73e5; Call: inactive

Which result is listed for CG3330?
stable assay Renilla, run 1: 7806; stable assay firefly, run 1: 4.38e5; Call: inactive

For fzr2, how do the results read?
stable assay Renilla, run 1: 10377; stable assay firefly, run 1: 1.87e6; Call: inactive

For Bulli, what was measured?
stable assay Renilla, run 1: 5618; stable assay firefly, run 1: 3.28e5; Call: inactive

For CheA84a, what does the deposit list?
stable assay Renilla, run 1: 5087; stable assay firefly, run 1: 3.12e5; Call: inactive

With nSMase, what was measured?
stable assay Renilla, run 1: 7838; stable assay firefly, run 1: 5.26e5; Call: inactive

With mtgo #1, what does the deposit list?
stable assay Renilla, run 1: 4347; stable assay firefly, run 1: 2.33e5; Call: inactive

What did the screen give for mtgo #2?
stable assay Renilla, run 1: 3931; stable assay firefly, run 1: 2.99e5; Call: inactive

What did the screen give for mtgo #3?
stable assay Renilla, run 1: 9687; stable assay firefly, run 1: 2.22e6; Call: inactive

With mtgo #4, what was measured?
stable assay Renilla, run 1: 9606; stable assay firefly, run 1: 5.10e5; Call: inactive

How did the screen score mtgo #5?
stable assay Renilla, run 1: 7759; stable assay firefly, run 1: 3.97e5; Call: inactive

What is on record for AP-1mu?
stable assay Renilla, run 1: 8400; stable assay firefly, run 1: 3.68e5; Call: inactive

Which result is listed for Cp7Fa #1?
stable assay Renilla, run 1: 6006; stable assay firefly, run 1: 3.07e5; Call: inactive

For Cp7Fa #2, what does the deposit list?
stable assay Renilla, run 1: 7666; stable assay firefly, run 1: 2.92e5; Call: inactive

For hdly, what does the deposit list?
stable assay Renilla, run 1: 7354; stable assay firefly, run 1: 4.46e5; Call: inactive
